Test results reported in article PMC4466649.
No constants are given. Whether binding was seen depends on the method and setting. In cells and extracts the contact can be indirect.

Protein sequences, listed by entry. Tags and fused reporters are not part of them. Residues count along the entry.
UniProt P33527: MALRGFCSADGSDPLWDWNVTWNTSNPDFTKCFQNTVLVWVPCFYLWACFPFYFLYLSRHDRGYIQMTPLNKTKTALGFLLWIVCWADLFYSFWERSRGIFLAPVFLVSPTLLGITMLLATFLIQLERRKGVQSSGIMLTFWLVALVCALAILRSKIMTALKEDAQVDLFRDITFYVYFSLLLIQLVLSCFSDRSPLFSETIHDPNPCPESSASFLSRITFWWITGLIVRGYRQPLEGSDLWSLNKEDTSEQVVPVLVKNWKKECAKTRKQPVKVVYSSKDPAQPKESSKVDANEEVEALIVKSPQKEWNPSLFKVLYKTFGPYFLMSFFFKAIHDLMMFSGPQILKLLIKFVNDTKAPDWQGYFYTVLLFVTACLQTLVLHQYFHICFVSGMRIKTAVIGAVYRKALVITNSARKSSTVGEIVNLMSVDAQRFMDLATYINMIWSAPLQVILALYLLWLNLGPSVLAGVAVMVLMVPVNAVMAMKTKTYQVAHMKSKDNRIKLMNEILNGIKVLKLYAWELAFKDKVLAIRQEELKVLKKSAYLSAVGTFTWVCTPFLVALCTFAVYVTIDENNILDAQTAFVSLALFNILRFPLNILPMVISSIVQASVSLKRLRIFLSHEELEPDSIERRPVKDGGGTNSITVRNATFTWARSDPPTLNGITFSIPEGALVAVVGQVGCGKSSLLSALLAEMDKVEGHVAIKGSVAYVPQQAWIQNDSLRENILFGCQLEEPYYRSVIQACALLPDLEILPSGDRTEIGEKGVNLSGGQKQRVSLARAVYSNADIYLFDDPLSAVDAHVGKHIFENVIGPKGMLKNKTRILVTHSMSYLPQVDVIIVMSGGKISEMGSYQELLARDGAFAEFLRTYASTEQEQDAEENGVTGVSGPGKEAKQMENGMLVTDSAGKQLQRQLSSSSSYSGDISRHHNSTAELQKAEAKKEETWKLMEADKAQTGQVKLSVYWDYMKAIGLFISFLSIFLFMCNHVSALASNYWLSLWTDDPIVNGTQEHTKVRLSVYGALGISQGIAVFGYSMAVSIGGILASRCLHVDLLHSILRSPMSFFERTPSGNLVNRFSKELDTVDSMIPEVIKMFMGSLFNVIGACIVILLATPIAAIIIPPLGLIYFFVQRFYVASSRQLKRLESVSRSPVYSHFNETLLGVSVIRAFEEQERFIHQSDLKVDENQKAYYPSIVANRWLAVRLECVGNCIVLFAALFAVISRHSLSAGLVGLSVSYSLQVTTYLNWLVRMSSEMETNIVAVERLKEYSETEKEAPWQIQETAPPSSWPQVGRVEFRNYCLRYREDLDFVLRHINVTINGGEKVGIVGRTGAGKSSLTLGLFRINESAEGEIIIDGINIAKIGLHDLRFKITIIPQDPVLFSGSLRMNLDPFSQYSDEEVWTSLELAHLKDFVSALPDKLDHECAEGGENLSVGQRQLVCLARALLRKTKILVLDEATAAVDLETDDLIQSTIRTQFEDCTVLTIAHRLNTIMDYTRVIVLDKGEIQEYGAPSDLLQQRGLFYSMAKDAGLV
UniProt O43570, residues 25-354: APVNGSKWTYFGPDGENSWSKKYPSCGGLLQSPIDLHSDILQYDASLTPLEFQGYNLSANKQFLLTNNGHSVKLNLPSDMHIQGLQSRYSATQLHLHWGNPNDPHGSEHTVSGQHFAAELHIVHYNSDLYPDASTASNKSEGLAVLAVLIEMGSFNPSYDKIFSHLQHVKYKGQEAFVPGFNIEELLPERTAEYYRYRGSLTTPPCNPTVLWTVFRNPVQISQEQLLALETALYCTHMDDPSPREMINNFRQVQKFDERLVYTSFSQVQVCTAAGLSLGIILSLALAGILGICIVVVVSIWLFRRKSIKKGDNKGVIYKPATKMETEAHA

Biological target: multidrug resistance related protein 1 (human (endogenous in HT29/dx)) (UniProt P33527)
Assay: co-IP; biotinylated plasma membrane-derived extracts of HT29 and HT29/dx cells; 100 ug of proteins immunoprecipitated with anti-Pgp or anti-MRP1 antibodies on protein A and protein G magnetic beads; immunoblotted with anti-CAXII, anti-CAIX, anti-Pgp or anti-MRP1

Q: Which binding does the source give for “carbonic anhydrase type XII (from UniProt O43570 25-354) (enzyme)” here?
A: The binding was “no binding”.
